Assay results from article PMC6786517.
Results are given in words; binding and its absence hold for the method and conditions named. In cells and extracts the contact can be indirect. Here binding means that the protein was enriched with, or labelled near, the bait; the list need not be complete.

By UniProt entry, the sequences of proteins in these tests, tags left out.
UniProt Q8BWT5: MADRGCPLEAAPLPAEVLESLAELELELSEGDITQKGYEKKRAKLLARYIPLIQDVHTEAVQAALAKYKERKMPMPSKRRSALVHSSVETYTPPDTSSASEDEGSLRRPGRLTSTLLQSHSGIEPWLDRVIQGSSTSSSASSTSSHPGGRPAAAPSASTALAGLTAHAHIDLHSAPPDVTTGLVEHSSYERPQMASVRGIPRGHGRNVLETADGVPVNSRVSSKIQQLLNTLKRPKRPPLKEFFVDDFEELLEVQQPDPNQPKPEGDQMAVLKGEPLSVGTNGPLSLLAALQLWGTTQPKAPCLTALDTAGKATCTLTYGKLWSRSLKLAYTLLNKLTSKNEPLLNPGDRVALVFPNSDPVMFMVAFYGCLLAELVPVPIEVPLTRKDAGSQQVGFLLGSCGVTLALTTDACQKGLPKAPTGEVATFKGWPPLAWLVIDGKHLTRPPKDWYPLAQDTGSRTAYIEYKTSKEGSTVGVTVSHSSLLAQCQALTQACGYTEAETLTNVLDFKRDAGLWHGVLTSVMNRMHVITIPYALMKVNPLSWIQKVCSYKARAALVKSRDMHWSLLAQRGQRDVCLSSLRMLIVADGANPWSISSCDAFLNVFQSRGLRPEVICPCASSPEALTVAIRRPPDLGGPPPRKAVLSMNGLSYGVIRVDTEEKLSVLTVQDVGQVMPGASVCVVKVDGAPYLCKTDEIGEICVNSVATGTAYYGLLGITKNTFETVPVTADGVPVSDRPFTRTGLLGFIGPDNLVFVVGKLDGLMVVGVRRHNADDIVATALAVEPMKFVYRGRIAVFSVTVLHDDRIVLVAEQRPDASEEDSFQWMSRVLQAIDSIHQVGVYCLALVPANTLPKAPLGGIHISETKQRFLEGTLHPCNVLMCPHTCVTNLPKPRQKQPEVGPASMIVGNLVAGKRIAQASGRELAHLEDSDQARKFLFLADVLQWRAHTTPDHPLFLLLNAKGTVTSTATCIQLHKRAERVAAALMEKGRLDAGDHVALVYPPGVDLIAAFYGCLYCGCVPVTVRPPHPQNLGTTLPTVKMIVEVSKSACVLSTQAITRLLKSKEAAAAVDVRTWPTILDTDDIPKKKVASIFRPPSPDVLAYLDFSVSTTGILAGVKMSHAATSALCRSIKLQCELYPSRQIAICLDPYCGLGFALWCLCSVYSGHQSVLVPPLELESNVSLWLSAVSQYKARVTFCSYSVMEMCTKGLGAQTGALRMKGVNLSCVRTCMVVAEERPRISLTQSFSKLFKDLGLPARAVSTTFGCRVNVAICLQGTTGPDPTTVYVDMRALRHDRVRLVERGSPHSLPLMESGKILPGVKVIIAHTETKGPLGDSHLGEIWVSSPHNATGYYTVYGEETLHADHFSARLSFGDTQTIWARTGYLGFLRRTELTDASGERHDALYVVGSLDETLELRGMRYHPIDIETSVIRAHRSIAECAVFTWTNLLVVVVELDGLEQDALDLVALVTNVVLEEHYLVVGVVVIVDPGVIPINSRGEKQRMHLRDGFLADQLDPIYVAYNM
UniProt Q14247: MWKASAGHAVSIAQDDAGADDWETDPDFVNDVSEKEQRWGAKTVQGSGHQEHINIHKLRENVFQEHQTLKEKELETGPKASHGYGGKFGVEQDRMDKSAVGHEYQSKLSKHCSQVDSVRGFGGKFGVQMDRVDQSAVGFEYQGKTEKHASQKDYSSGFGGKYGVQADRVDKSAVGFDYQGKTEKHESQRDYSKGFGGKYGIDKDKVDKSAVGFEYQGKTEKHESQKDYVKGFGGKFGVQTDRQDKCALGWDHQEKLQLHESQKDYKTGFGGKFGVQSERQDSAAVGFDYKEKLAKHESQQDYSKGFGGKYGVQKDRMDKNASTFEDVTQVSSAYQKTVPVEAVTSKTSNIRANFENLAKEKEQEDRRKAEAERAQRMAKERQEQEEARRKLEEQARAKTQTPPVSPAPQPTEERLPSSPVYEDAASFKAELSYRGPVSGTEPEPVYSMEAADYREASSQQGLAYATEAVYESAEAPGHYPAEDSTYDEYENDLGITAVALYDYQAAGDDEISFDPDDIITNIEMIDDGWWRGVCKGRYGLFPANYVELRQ
UniProt Q60598: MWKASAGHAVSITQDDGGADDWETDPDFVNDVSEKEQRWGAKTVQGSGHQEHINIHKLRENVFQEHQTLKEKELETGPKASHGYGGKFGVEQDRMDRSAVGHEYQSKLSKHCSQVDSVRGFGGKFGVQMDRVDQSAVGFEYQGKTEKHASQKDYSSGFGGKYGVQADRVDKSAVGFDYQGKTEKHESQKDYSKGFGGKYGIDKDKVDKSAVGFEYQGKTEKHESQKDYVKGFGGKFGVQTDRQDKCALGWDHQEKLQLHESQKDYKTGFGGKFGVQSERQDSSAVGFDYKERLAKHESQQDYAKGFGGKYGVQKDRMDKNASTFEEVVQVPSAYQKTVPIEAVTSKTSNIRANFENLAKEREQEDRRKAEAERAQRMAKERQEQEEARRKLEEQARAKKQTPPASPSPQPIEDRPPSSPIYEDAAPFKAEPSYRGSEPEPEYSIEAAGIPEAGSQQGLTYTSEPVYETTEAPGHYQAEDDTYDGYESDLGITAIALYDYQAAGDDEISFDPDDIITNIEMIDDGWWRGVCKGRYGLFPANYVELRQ

Tests used:
[1] = target: FLAG-tagged full-length DIP2A (disconnected-interacting protein homolog 2 A) (UniProt Q8BWT5); assay: affinity purification with mass spectrometry; FLAG-DIP2A overexpressed in HEK293 cells, purified with anti-FLAG M2 Affinity Gel, lanes of SDS-PAGE subjected to LC-MS/MS
His-tagged DIP2A(1-320) = His-tagged DIP2A(1-320) (UniProt Q8BWT5); assay: affinity purification with mass spectrometry; His-DIP2A1-320 pull-down from cerebral cortex lysate; the corresponding lane on SDS-PAGE subjected to LC-MS/MS; only the target purified

binding [1] | binding (His-tagged DIP2A(1-320)) | Substance
binds |  | cortactin, endogenous in HEK293 cells (from UniProt Q14247 1-550)
 | binds | endogenous cortactin from murine brain lysate (from UniProt Q60598 1-546)
